This passage reports binding signal results from article PMC7862700.

Protein sequences, listed by entry. Tags and fused reporters are not part of them. Lines headed by an entry give the natural chain unless they say otherwise; changes in a name come on top.
UniProt Q00613: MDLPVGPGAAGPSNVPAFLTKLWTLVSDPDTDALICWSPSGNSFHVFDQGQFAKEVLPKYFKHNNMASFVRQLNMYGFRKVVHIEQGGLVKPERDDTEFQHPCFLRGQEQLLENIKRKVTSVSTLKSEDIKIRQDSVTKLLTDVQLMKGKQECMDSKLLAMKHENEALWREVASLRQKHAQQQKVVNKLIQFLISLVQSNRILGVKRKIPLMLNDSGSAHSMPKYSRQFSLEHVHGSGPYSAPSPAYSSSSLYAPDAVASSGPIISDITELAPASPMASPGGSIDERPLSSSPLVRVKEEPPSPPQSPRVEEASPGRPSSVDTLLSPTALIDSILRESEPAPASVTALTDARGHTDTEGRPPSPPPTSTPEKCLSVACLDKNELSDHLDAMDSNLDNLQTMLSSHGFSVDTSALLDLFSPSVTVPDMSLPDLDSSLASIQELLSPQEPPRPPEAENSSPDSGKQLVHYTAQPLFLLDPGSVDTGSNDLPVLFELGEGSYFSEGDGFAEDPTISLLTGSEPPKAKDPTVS

The list shows a part of the results, in another mix than the full data. For part of these data: At the low end of the ranking the order means little. This is one part of the list. For part of these data: The source does not settle which construct or isoform was used.

The target of one experiment is HSF1 (UniProt Q00613). Description: DAPPL (digital affinity profiling via proximity ligation, sequencing). The conditions noted are these: 10 mM Tris-HCl pH 7.5, 50 mM NaCl, 1 mM DTT, 4% glycerol, room temperature, 30 min; GST-TFs on glutathione beads, 16-mer random dsDNA library, 0.1% …; high values mean tight binding; double strand, one strand shown; scale: fold enrichment (6-mer frequency, TF over GST control).

The target in the next experiment is T1, ELF2 (UniProt Q15723).
T1 sequence: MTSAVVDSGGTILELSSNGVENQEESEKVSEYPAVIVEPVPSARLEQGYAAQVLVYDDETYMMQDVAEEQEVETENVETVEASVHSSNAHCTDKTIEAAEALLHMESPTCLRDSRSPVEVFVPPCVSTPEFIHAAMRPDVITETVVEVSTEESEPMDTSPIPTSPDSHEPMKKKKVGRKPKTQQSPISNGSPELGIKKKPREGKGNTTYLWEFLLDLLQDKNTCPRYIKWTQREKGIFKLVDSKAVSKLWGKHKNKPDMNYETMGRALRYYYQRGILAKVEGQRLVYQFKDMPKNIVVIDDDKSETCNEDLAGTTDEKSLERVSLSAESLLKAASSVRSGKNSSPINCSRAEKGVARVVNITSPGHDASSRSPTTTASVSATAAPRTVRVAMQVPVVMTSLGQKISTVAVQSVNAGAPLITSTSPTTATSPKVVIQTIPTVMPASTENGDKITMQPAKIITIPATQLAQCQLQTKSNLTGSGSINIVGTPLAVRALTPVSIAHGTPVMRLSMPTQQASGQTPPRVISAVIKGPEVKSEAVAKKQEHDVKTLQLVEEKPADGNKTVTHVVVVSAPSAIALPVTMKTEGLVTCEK
The description is as above. The conditions noted are these: 10 mM Tris-HCl pH 7.5, 50 mM NaCl, 1 mM DTT, 4% glycerol, room temperature, 30 min; GST-TFs on glutathione beads, 16-mer random dsDNA library, 0.1% …; high values mean tight binding; double strand, one strand shown; scale: fold enrichment (6-mer frequency, TF over GST control).

As to CCGTGC, the figures for the binding signal with HSF1 and with ELF2 were 0.491 and 0.614, respectively.
With CGCAGC, the binding signal with HSF1 worked out at 0.634; with ELF2 it was 0.783.
The corresponding values for AAAGGA are 0.866 and 0.89.
The corresponding values for GCCATA are 0.844 and 0.867.
The corresponding values for GAACGA are 0.953 and 0.727.
With TGTGGG, the binding signal in the experiment with HSF1 is 0.719; with ELF2, 0.781.
The corresponding values for GGTGCA are 0.651 and 0.869.
The corresponding values for GGCGGG are 0.264 and 0.31.
On to CAGCGT, for which the binding signal with HSF1 was 0.688; with ELF2, 0.795.
On to GGTTAG, for which the results for the binding signal with HSF1 and with ELF2 were 0.707 and 0.726, respectively.
ACGCAT: the values for the binding signal with HSF1 and in the experiment with ELF2 were 0.656 and 0.76, respectively.
As for CGGACA, the binding signal amounted to 0.503 with HSF1 and 0.885 in the experiment with ELF2.
GGTCAA: the binding signal in the experiment with HSF1 turned out to be 0.709; in the experiment with ELF2, 0.839.
As to CGGTAG, the binding signal with HSF1 stood at 0.518; in the experiment with ELF2, 0.829.
Take GGCGCC: the binding signal with HSF1 was 0.515; in the experiment with ELF2, 0.653.
The corresponding values for AAGCGT are 0.847 and 0.886.
For GTGATA the same measures were 0.647 and 0.664.
The corresponding values for GGACCC are 0.624 and 0.861.
Turning to TGCCAG, the binding signal amounted to 0.855 with HSF1 and 0.663 with ELF2.
In the case of GCGGCC, the binding signal came to 0.661 in the experiment with HSF1 and 0.806 with ELF2.
For AACCAG, the binding signal in the experiment with HSF1 stood at 0.852; with ELF2, 0.885.
For CGGACG the same measures were 0.309 and 0.49.
The corresponding values for CGGGTT are 0.682 and 1.06.
As to AGTCAC, the values for the binding signal with HSF1 and with ELF2 were 0.619 and 0.792, respectively.
For CACCGT, the results for the binding signal with HSF1 and with ELF2 were 0.599 and 0.618, respectively.
For CGCGGG the same measures were 0.675 and 0.703.
The corresponding values for GATCGT are 0.455 and 0.396.
As to GGTGGG, the values for the binding signal with HSF1 and with ELF2 were 0.502 and 0.625, respectively.
TGTCGG: the binding signal with HSF1 stood at 0.295; with ELF2, 0.337.
The corresponding values for TGTAGT are 0.744 and 0.887.
The corresponding values for CATGAG are 0.594 and 0.625.
The corresponding values for CGGGTG are 0.508 and 0.693.
GAGAGC: the binding signal with HSF1 stood at 0.33; in the experiment with ELF2, 0.364.
Regarding GTCTGA, the binding signal with HSF1 is 0.676; in the experiment with ELF2 it was 0.753.
With GGTGAG, the binding signal was 0.325 with HSF1 and 0.335 in the experiment with ELF2.
TTCGGA: the results for the binding signal with HSF1 and with ELF2 were 0.798 and 0.709, respectively.
Regarding CAGCAA, the binding signal with HSF1 stood at 0.952; in the experiment with ELF2, 0.903.
The corresponding values for TGAAGT are 0.703 and 0.731.
With ACAGGT, the binding signal with HSF1 is 0.644; with ELF2 it was 0.726.
The corresponding values for AGAGGG are 0.732 and 0.681.
The corresponding values for AATCGG are 0.682 and 0.545.
With GTCCAG, the binding signal with HSF1 was determined as 0.782; in the experiment with ELF2, 0.637.
With GGCCAT, the binding signal with HSF1 was 0.701; with ELF2 it was 0.8.
For CCGAGG the same measures were 0.679 and 0.685.
The corresponding values for GTCGGA are 0.151 and 0.17.
In the case of TACAGT, the binding signal in the experiment with HSF1 was 0.801; in the experiment with ELF2, 0.824.
The corresponding values for GGCTGG are 0.701 and 0.684.
Consider GTAGTG, for which the figures for the binding signal with HSF1 and with ELF2 were 0.59 and 0.806, respectively.
For CCGGGG the same measures were 0.552 and 0.848.
For the sequence GAGCTA, the binding signal turned out to be 0.948 in the experiment with HSF1 and 0.839 with ELF2.
The corresponding values for GGTACC are 0.619 and 0.834.
For AGGGCG the same measures were 0.469 and 0.58.
The corresponding values for CAGTCA are 0.431 and 0.483.
In the case of AGGTGG, the binding signal in the experiment with HSF1 was found to be 0.565; with ELF2, 0.593.
The corresponding values for AGACGA are 0.816 and 0.672.
Regarding CGTAGG, the values for the binding signal with HSF1 and with ELF2 were 0.591 and 0.659, respectively.
For the sequence GGAACG, the results for the binding signal with HSF1 and in the experiment with ELF2 were 0.684 and 0.593, respectively.
As for CAGTAC, the binding signal with HSF1 was determined as 0.713; with ELF2, 0.827.
For the sequence AGCACC, the values for the binding signal with HSF1 and with ELF2 were 0.816 and 0.849, respectively.
Take GTGACA: the binding signal in the experiment with HSF1 turned out to be 0.558; in the experiment with ELF2, 0.778.
The corresponding values for GGGGTT are 0.806 and 0.851.
The corresponding values for TAGGTG are 0.819 and 0.805.
For GCATGG the same measures were 0.714 and 0.823.
For the sequence AGCAGG, the binding signal was found to be 0.765 with HSF1 and 0.956 with ELF2.
As for CGGGCG, the results for the binding signal with HSF1 and with ELF2 were 0.335 and 0.433, respectively.
The corresponding values for TAGAGC are 0.902 and 0.756.
The corresponding values for GGGGGT are 0.426 and 0.493.
For GAGTCG the same measures were 0.221 and 0.215.
In the case of ATCGGG, the binding signal with HSF1 amounted to 0.546; with ELF2 it was 0.423.
Regarding GTGGAC, the binding signal in the experiment with HSF1 came out at 0.671; in the experiment with ELF2 it was 0.888.
Consider GAGGAA, for which the binding signal is 0.605 in the experiment with HSF1 and 0.883 in the experiment with ELF2.
On to GCGGTG, for which the binding signal in the experiment with HSF1 stood at 0.42; with ELF2 it was 0.517.
The corresponding values for GCAGCG are 0.651 and 0.777.
With GGGTCA, the binding signal with HSF1 is 0.532; with ELF2 it was 0.669.
On to AGTAGT, for which the binding signal stood at 0.827 with HSF1 and 0.957 with ELF2.
For GTAGTA, the binding signal with HSF1 stood at 0.813; with ELF2 it was 0.905.
The corresponding values for AGTCAG are 0.42 and 0.507.
With TGAGAG, the binding signal with HSF1 was 0.564; in the experiment with ELF2 it was 0.545.
Regarding AACGGG, the binding signal is 0.621 with HSF1 and 0.698 with ELF2.
The corresponding values for GTAGAC are 0.611 and 0.75.
For the sequence GCATAT, the binding signal with HSF1 worked out at 0.815; with ELF2 it was 0.935.
On to CAGGAC, for which the binding signal worked out at 0.599 in the experiment with HSF1 and 0.766 with ELF2.
For TCGGTA the same measures were 0.591 and 0.559.
Regarding AGCCGA, the binding signal in the experiment with HSF1 was determined as 0.91; with ELF2, 0.751.
In the case of AGGCAT, the binding signal in the experiment with HSF1 came to 0.773; in the experiment with ELF2 it was 0.82.
The corresponding values for GGGTGA are 0.513 and 0.589.
For the sequence GTCCGT, the binding signal worked out at 0.363 with HSF1 and 0.516 with ELF2.
The corresponding values for GGATGA are 0.944 and 0.996.
As to AGAGCA, the values for the binding signal with HSF1 and with ELF2 were 0.709 and 0.745, respectively.
With GCGTAG, the binding signal turned out to be 0.745 with HSF1 and 0.802 with ELF2.
For CGTGAT the same measures were 0.487 and 0.454.
The corresponding values for CGGCAG are 0.658 and 0.812.
Take GTGTCA: the binding signal is 0.624 in the experiment with HSF1 and 0.825 with ELF2.
In the case of TGCGAG, the binding signal with HSF1 was found to be 1.15; in the experiment with ELF2 it was 0.841.
For TCGGTT, the figures for the binding signal in the experiment with HSF1 and with ELF2 were 0.807 and 0.796, respectively.
The corresponding values for GGGAGG are 0.256 and 0.314.
Consider AGGGGA, for which the binding signal in the experiment with HSF1 is 0.567; with ELF2 it was 0.594.
For TGACGT the same measures were 0.703 and 0.831.
The corresponding values for TAGTCG are 0.523 and 0.419.
For GGACAG the same measures were 0.466 and 0.534.
With TGTGAG, the binding signal was 0.308 with HSF1 and 0.312 in the experiment with ELF2.
For TAGTGA the same measures were 0.647 and 0.556.
For GGGTCT the same measures were 0.822 and 0.915.
For GAACGT the same measures were 0.58 and 0.387.
As to GGGAAG, the results for the binding signal in the experiment with HSF1 and with ELF2 were 0.672 and 0.984, respectively.
The corresponding values for ACGGAC are 0.621 and 0.844.
For GACTGA the same measures were 0.717 and 0.713.
AGACCG: the binding signal in the experiment with HSF1 came out at 0.395; in the experiment with ELF2, 0.505.
Take CAGTGC: the figures for the binding signal with HSF1 and in the experiment with ELF2 were 0.661 and 0.719, respectively.
The corresponding values for GGGTCG are 0.475 and 0.571.
For GGTGGC the same measures were 0.518 and 0.718.
The corresponding values for CTGGAG are 0.798 and 0.65.
As to GACGCA, the figures for the binding signal with HSF1 and with ELF2 were 0.418 and 0.524, respectively.
For GGGGCA the same measures were 0.517 and 0.655.
